Experimental data as given in article PMC4536793.
Results are given in words; binding and its absence hold for the method and conditions named. Binding seen in cells or lysates may run through a third protein. Some entries that bind do so weakly or less than the wild type. Tags and fused reporters may be left off the sequences shown.

T1: TAP-Mmi1 (S. pombe) (UniProt O74958)
T1 sequence: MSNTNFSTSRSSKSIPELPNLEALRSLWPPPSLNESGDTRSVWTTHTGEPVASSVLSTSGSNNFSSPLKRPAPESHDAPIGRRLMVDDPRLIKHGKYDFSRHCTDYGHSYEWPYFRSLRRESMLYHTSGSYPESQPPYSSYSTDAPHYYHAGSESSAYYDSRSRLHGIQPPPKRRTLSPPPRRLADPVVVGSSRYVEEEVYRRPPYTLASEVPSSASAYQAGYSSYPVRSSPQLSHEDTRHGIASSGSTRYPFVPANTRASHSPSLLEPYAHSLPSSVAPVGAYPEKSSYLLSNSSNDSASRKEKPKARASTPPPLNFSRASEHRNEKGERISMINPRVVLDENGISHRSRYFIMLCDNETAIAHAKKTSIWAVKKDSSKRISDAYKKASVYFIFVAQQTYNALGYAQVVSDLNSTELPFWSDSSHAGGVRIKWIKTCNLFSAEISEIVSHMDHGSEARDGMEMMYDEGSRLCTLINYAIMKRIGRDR

T2: Ccr4 (TAP-tagged, Fig. 6a) (S. pombe) (UniProt O74874)
T2 sequence: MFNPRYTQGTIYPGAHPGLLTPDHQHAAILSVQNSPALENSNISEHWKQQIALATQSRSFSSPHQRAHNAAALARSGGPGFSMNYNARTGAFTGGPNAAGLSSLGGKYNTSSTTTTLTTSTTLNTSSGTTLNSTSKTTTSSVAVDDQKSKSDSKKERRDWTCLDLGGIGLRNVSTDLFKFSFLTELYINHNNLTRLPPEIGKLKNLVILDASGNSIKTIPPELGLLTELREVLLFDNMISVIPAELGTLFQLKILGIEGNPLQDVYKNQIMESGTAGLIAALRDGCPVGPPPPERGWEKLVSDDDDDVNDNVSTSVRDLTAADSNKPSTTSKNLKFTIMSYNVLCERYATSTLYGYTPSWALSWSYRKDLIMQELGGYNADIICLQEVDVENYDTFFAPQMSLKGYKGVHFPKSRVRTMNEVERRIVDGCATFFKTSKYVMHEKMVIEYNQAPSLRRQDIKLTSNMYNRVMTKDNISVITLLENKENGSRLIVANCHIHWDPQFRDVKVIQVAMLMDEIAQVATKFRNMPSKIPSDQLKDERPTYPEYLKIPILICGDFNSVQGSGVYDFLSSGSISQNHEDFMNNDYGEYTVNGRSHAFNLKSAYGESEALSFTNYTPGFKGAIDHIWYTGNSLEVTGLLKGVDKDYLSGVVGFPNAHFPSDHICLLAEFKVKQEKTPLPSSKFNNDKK

B1: Ccr4 (myc-tagged, Fig. 2b) (protein, UniProt O74874 1-690)
chain: T2 sequence
B2: Red1-myc (protein, UniProt Q9UTR8 1-712)
chain: MSRSINLDELRKKALESKKKNEEDESNDSDKEDGEISEDDPVIDQSNSVPPMKVPTFPEQIPQLPPFDRFPGTNANFFPFGAPFMLPPALMFGPNTVPFFPQTASSNKTFSKRKRSSENSFNNRNKAKSSETSDSSNTSQSFKENRALKDTATSRPLALSSDTSYQKSEKAKSEKSPFLSTSKNSDANYSKTTNQKEAEKAVSQLFEVGVRFNDFIAEGIEPSVVHTLFLKLGLDSSSASSQGSLTLSADKAARSAKLRKIDSNLSDTHILPGDNGTPTVLPERKNLISLPLLKQDDWLSSSKPFGSSTPNVVIEFDSDDDGDDFSNSKIEQSNLEKPPSNSENGLTMSRSDYLALLRNKEEEIRRMTKLILRLESNKKPYRSPTSAADMKLPSVPVAAVDNKSKTHLDTFEKVVDLSSKADFVEAGPSISSSGASSSAATTNSDTTEQILEAPWLRKTEQIAVVHEEHPAQIKKSEIDILNNLIEKEEGELTKYQTLVKSKTEILTQLYTRKKQLLEQQGKGNVACLPKESDLSMDSITEVSAQADENSSQILSSKTSNAPNGTTETDFEDKVPLVDYISPFYRFKSYRFNQQFVERVPLKYRSLTYSNKIEPMKVFCKYETTGGVCNDDHCEASHFRDIKMTDDEIIQDLSRYIEGNDEIEKESYKSGLDIVMKNTDENTDFVDVATRIVEYHNLWKSERMTIPVAKVSI
B3: Chp1-myc (protein, UniProt Q10103 1-960)
chain: MVSVKPLPDIDSNEGETDADVYEVEDILADRVNKNGINEYYIKWAGYDWYDNTWEPEQNLFGAEKVLKKWKKRKKLIAKGLLEPFDAEDNEAKKMKREKEILRQQRQKRKSELTQLSQKVKEKFKKMRKKPARRIVTIANDEEEEDDQTMDEDAFERKSMQGELKERNLTDKTSTLSTSFGETSPDVNPFYLSEWPTVTDSILLSKSLSSDAIPLKNGEIKSTMLMPSDSDNSVPGIQNSNNLENTGAFVENANSPQSNTPLSTFRHSSPLSLSPVITSDNDVANSLFFSNSTPLPSSLKIKKEAPKLETHTILVSDNSGSLTKQDILSYFAFIKGNIEVFFLKSPKKDKVCNMAYIQFDSIEQAKLAYDKGHPSWHVTLVKGKISTDMEECKVSKSILKTTPSKKANARSVSFTQTTTDTLSESEKFASNVDLDENFDFNVNVTNEDAKQLKKSVIGSSWTTVNNDWNSVSKSDQTFENDGASKVVPAGNITLNSDNSLHHSISESEDLSSASTLSDYFRFVLRVGKSLYYAGELSFDISKLKAETEHQQLLRSLVSCKQVDVLRFVTSQYLEVFGTCLTKVLSGSLCIRSDVDMTHFKNILNRGNGAGIVLGSNYTLLLFTEDNNALMNLYDCQGQSNSPFWMVIFEPLESILVEWSAKNLRPKKPYHKSQSYLSYLLQLGHIDLHKIGAFQATQILIVSKQPSPEAEELEDTFREAAIPTFRGLEIPESLFLSQNVFVFLNVSLEDDFDQLQFLTLAKRKSCKFFLFGLSLPLKSPNDSHVGTDFKKNNEPLDKLTYSQYLRPMFPKGGVVSVTLSALIKTPRLLELISPFLEIKKDSWILILPPSIVDMVKSYFVTNNPDKSLLEIQNLLNTLQRYLTNPALKNVTLYQDWDIVIDDSADVSLASTLQLYQKKNYDKYRRFVLIHELKNELTPVNGLDIVDYDEFKETFMRAIGLK

Assays:
[1] = biological target: T1, TAP-Mmi1 (S. pombe); assay: co-IP; whole cell extracts of S. pombe grown in YE at 32°C, mock-treated or treated with RNase cocktail (30 min, room temperature); TAP-tagged protein precipitated on magnetic beads coated with anti-protein A antibody, 2 h at 4°C; lysis buffer 20 mM Tris HCl, 140 mM KCl, 1.8 mM MgCl2, 0.1% NP-40; washes with 10% glycerol and 0.2 mg/ml heparin; Western blot against myc or TAP; Ccr4-Chp1 also tested in cells lacking Mmi1
[2] = biological target: T2, Ccr4 (TAP-tagged, Fig. 6a) (S. pombe); assay: as above

Binder	binding [1]	binding [2]
B1	binds	–
B2	binds	–
B3	–	binds
